Taken from: PubChem BioAssay AID652272 (Drosophila RNAi Screening Center, 2013)

- Purpose: 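Genome-wide knock-down search for components of Hedgehog signalling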 (primary screen)
- Cell system: Drosophila clone 8 (Cl8) cells
- Reagent: long dsRNA against Drosophila genes
- Measurement: 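Plate reader light from a firefly reporter under a ptc promoter fragment that responds to Hedgehog, with Renilla light as transfection reference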
- Reading the numbers: firefly Hh reporter signal: higher = more ptc reporter light; Renilla reference signal: higher = more Renilla control light
- Rule for the call: 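Hit when the z-score averaged over two replicates is under -2 or over +3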
- Meaning of the calls: active = hit: reporter lowered or raised; inactive = not a hit
The deposit covers about 21,000 reagents; below is an unselected part of those that have a named target and a result. Over the whole deposit, 503 (2.4%) got an active call. 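Raw plate light values, not normalised; calls rest on replicate z-scores that were not deposited; hits include reporter decreases as well as increases.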 A plus sign joins genes that one reagent is predicted to hit. Not stated in the record: the amount of reagent, the time to read-out.

target | PubChem SID | firefly Hh reporter signal, replicate 1 | firefly Hh reporter signal, replicate 2 | firefly Hh reporter signal, replicate 3 | Renilla reference signal, replicate 1 | Renilla reference signal, replicate 2 | activity call
Dronc | SID104191023 | 1.32e5 | 90603 | – | 5658 | 2699 | inactive
Usp39 | SID104199824 | 1.50e5 | 1.04e5 | – | 2903 | 2394 | inactive
BBS4 | SID104186144 | 8.66e5 | 1.79e5 | – | 8166 | 8166 | inactive
2mit | SID104193986 | 97816 | 79606 | – | 3144 | 1734 | inactive
2mit | SID104195016 | 49111 | 77957 | – | 1853 | 2000 | inactive
CG18545 | SID104195135 | 1.02e5 | 1.27e5 | – | 3467 | 4000 | inactive
CG2577 | SID104199655 | 34256 | 1.38e5 | – | 964 | 6790 | inactive
CG6294 + CG6299 | SID104199772 | 61221 | 1.68e5 | – | 1818 | 7060 | inactive
cindr | SID104193918 | 1.00e5 | 80730 | – | 1952 | 2113 | inactive
cindr | SID104194090 | 47347 | 84368 | – | 1270 | 5456 | inactive
CG7214 | SID104182820 | 1.76e5 | 1.20e5 | – | 6861 | 5334 | inactive
CG15515 | SID104194846 | 1.17e5 | 1.43e5 | – | 4470 | 4209 | inactive
dre4 | SID104188506 | 63576 | 46363 | – | 2781 | 3401 | inactive
CG7714 | SID104196092 | 7.21e5 | 1.31e5 | – | 35378 | 3616 | inactive
CG12607 | SID104188079 | 54009 | 49829 | – | 1073 | 3888 | active
NT1 | SID104188322 | 42656 | 53819 | – | 1888 | 4274 | inactive
CG13983 | SID104182107 | 1.04e5 | 39607 | – | 2905 | 4157 | inactive
CG34409 | SID104194369 | 68886 | 1.25e5 | – | 1768 | 3011 | inactive
ort | SID104196032 | 5.68e5 | 88288 | – | 29124 | 2711 | inactive
CG8319 | SID104196199 | 63735 | 1.57e5 | – | 1621 | 3160 | inactive
Ir52a | SID104186054 | 96656 | 77008 | – | 2619 | 4838 | inactive
CG13690 | SID104180151 | 1.18e5 | 73012 | – | 2795 | 1673 | inactive
Ac3 | SID104183484 | 87731 | 71430 | – | 3737 | 2880 | inactive
wam | SID104194963 | 5.53e5 | 82573 | – | 26041 | 2411 | inactive
CG14022 | SID104182144 | 1.12e5 | 54504 | – | 3159 | 5180 | inactive
Ntmt | SID104186416 | 1.30e5 | 65900 | – | 3332 | 486 | inactive
Spn31A | SID104182572 | 1.11e5 | 35808 | – | 2724 | 3785 | inactive
CG3191 | SID104198322 | 1.89e5 | 1.02e5 | – | 4738 | 3600 | inactive
Patj | SID104188504 | 92848 | 63504 | – | 4837 | 3104 | inactive
S-Lap2 | SID104190420 | 71163 | 60093 | – | 5648 | 4369 | inactive
Eig71Ei | SID104190948 | 1.64e5 | – | – | 6597 | 4647 | inactive
Twdlbeta | SID104187102 | 87104 | 77224 | – | 2608 | 5450 | inactive
sowah | SID104188978 | 1.21e5 | 1.80e5 | – | 3738 | 8449 | inactive
sowah | SID104189550 | 1.10e5 | 99024 | – | 4352 | 4122 | inactive
CG14495 | SID104186258 | 60705 | 64028 | – | 1536 | 4587 | inactive
CG7912 | SID104196135 | 1.13e5 | 1.21e5 | – | 4288 | 3714 | inactive
CG5946 | SID104190352 | 36795 | 35542 | 44422 | 4021 | 3697 | inactive
FAM21 | SID104186415 | 88936 | 81659 | – | 4644 | 3746 | inactive
Rab6 | SID104183196 | 72709 | 44642 | – | 3787 | 2360 | inactive
spaw | SID104186616 | 74905 | 56074 | – | 1872 | 4236 | inactive
Hr4 | SID104198287 | 2.10e5 | 1.34e5 | 3.69e5 | 2119 | 5328 | active
Hr4 | SID104198391 | 87024 | 89538 | – | 3878 | 4224 | inactive
Pdxk | SID104190211 | 27238 | 41763 | 55073 | 3701 | 4345 | inactive
mIF2 | SID104194302 | 93456 | 1.41e5 | – | 1969 | 4549 | inactive
noc | SID104183372 | 40304 | 39336 | – | 2243 | 2116 | inactive
CG14971 | SID104188222 | 81843 | 75933 | – | 3468 | 2818 | inactive
Lhr | SID104186551 | 63555 | 57120 | – | 4897 | 3724 | active
CG13557 | SID104183987 | 1.63e5 | 99179 | – | 4280 | 7811 | inactive
CG10205 | SID104185771 | 73120 | 31153 | – | 1745 | 2728 | inactive
CG10700 | SID104181888 | 73668 | 48856 | – | 1804 | 3985 | inactive
CG3223 | SID104195260 | 89568 | 1.15e5 | – | 3584 | 3411 | inactive
BNIP3 | SID104191553 | 77800 | 87991 | – | 3037 | 2650 | inactive
CG31075 | SID104195808 | 94705 | 98834 | – | 3410 | 2752 | inactive
CG5376 | SID104195574 | 7.81e5 | 1.62e5 | – | 39285 | 363 | inactive
PolZ1 | SID104186592 | 88516 | 76169 | – | 3890 | 3171 | inactive
CG32037 | SID104190155 | 59565 | 66161 | 74641 | 6288 | 5866 | inactive
Psf3 | SID104198008 | 1.70e5 | 4.21e5 | – | 6208 | 15200 | inactive
